Assay: general procedure: peptide synthesis; DIC/HOBt; DCC

Substance	step yield (late stage modification step)	step yield (coupling step)
Mono-Boc-Sandostatin	80.3%	
Nic-Pro-Pro-(Mono-Boc-Sandostatin)		64.7%

Source: US7115566B2 (University of Florida, priority 1997, dated 2006)
